{
  "source": "the supplement of paper PMC4604168 (melanoma cell lines)",
  "note": "This is one part of the list. Repeats are few or missing, and single values can be far off.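 Cells were imaged in 1,536-well plates, and nuclei stained with an antibody against cleaved PARP were counted against all DNA-stained nuclei to give the apoptosis fraction. Screening doses were chosen to leave most cells alive, and resting and induced cleaved-PARP levels differ strongly between cell lines.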",
  "data": [
    {"test_system": "UACC62", "assay": "cleaved PARP positive nuclei fraction relative to DMSO control; melanoma cells; higher = more apoptosis", "settings": "library dose: low library concentration; 72 h", "units": {"cleaved PARP positive nuclei fraction": "%"}, "values": [
      {"smiles": "Cn1cc(/C=C2\\C(=O)Nc3cccnc32)c2ccccc21", "note": "+ CC(C)CCN1c2nc(Nc3cc(F)c(O)c(F)c3)ncc2N(C)C(=O)C1C [BID1870] (first compound 0.4 µM, partner dose 0.2 µM)", "cleaved PARP positive nuclei fraction": 204},
      {"smiles": "O=C1NC(=O)/C(=C/c2ccc(-c3ccc(F)cc3O)o2)S1", "note": "+ COc1cc(N2CCC(N3CCN(C)CC3)CC2)ccc1Nc1ncc(Cl)c(Nc2ccccc2S(=O)(=O)C(C)C)n1 [NVP-TAE684] (first compound 1 µM, partner dose 0.08 µM)", "cleaved PARP positive nuclei fraction": 92},
      {"smiles": "N#Cc1c(O)c2c(-c3ccc(-c4ccccc4O)cc3)csc2[nH]c1=O", "note": "+ CCN(CC)CCCCNc1ncc2cc(-c3cc(OC)cc(OC)c3)c(NC(=O)NC(C)(C)C)nc2n1 [PD173074] (first compound 2 µM, partner dose 0.1 µM)", "cleaved PARP positive nuclei fraction": 119},
      {"smiles": "CN(C)S(=O)(=O)c1ccc2c(c1)/C(=C/c1cc3c([nH]1)CCCC3)C(=O)N2", "note": "+ COc1ccc2c(c1)CCC1C2CCC2(C)C(NCCCCCCN3C(=O)C=CC3=O)CCC12 [U73122] (first compound 0.4 µM, partner dose 0.4 µM)", "cleaved PARP positive nuclei fraction": 88.6},
      {"smiles": "Oc1cc(-c2nc(-c3ccccc3)[nH]c2-c2ccncc2)ccc1Cl", "note": "+ c1cc(-c2cnn3cc(-c4ccc(OCCN5CCCCC5)cc4)cnc23)ccn1 [Dorsomorphin] (first compound 0.2 µM, partner dose 0.4 µM)", "cleaved PARP positive nuclei fraction": 276},
      {"smiles": "Oc1nc(-c2ccc(C(F)(F)F)cc2)nc2c1CSCC2", "note": "+ CCCCCCCCCCCC1=C(O)C(=O)C=C(O)C1=O [Embelin] (first compound 2 µM, partner dose 1.2 µM)", "cleaved PARP positive nuclei fraction": 35.3}
    ]}
  ]
}
